# Results from PubChem BioAssay AID493014 (National Center for Advancing Translational Sciences (NCATS), 2011).
# The other results are listed elsewhere or left out. These are further read-outs of the screen, such as a control signal, another cell line or another target. No call is given for them. The list favours compounds with an active or inconclusive main result. Words in brackets tell the shape of the fitted curve; partial curves, single points and poor fits give uncertain potencies.
# Experiment: qHTS Assay to Find Inhibitors of Chronic Active B-Cell Receptor Signaling
# Settings: ABC-DLBCL IkBa-CBG/CBR reporter, luminescence ratio (green luciferase fused to IkBa over red control in TMD8 lymphoma cells), 4 h
# Outline: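 Cell line TMD8 (human ABC DLBCL), stably expressing tet-inducible CBG68-IkBa fusion and CBR; IMDM/0.5% FBS; cpd up to 46 uM; dox induction, 4 h, 37C/5% CO2; dual luminescence; green/red ratio; MG132 control.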
# [1] = measured here: CBR red luminescence, cell number
# [2] = measured here: IkBa-CBG green luminescence
SMILES,AC50 [1],AC50 [2]
Cc1ccc(F)cc1NC(=O)N1CCCN(C(=O)OC(C)(C)C)CC1,"12.6 µM [rising, partial curve]",–
COc1ccc(OC)c(C(=O)CSc2nc3cccnc3n2C)c1,"0.259 µM [falling, full curve, poor fit]",–
COc1ccc(C(=O)CSc2[nH]c(=O)cc(C(F)(F)F)c2C#N)cc1,"35.5 µM [falling, single point]",–
Cc1nc(NC(=O)CCl)sc1C(=O)N(C)C,"35.5 µM [falling, single point]",–
COc1cccc(C(=O)Nc2nnc(-c3ccc(F)cc3)o2)c1,"15.8 µM [falling, partial curve]",–
O=C1/C(=C/c2coc3ccc(O)cc3c2=O)SC(=S)N1c1ccccc1,"35.5 µM [falling, single point]",–
O=C(NCCc1ccc(Cl)cc1)c1cc2ccccn2n1,"12.6 µM [falling, partial curve, poor fit]",–
N#Cc1ncn(-c2ccc(Oc3ccccc3)cc2)c1N,"35.5 µM [rising, single point]",–
CCOC(=O)C1(Cc2ccccc2)CCN(Cc2cccc(OC)c2O)CC1,"10 µM [falling, partial curve]",–
Cc1c(CCC(=O)O)c(=O)oc2c(C)c(OCc3ccccc3Cl)ccc12,"10 µM [falling, partial curve, poor fit]",–
Cc1cc([N+](=O)[O-])ccc1-c1ccc(C2Nc3ccccc3C(=O)N2O)o1 (configuration not stated),"14.1 µM [falling, partial curve, poor fit]",–
CCOC(=O)[C@@H]1[C@H]2COc3cc(OC)ccc3[C@@H]2N2C(=O)N(c3cccc(F)c3)C(=O)[C@]12C,"25.1 µM [falling, single point]","22.4 µM [rising, partial curve, poor fit]"
COCCSc1ccccc1C(=O)Nc1cc(C)on1,"2.31 µM [falling, partial curve, poor fit]",–
COc1ccc(CCNC(=O)c2cc(-c3cc(C)cc(C)c3O)n[nH]2)cc1OC,"22.4 µM [falling, single point]",–
CCN(CC(=O)NCc1cccs1)C(=O)/C=C/c1cc(OC)c(OC)c(OC)c1,"11.6 µM [rising, partial curve, poor fit]",–
Cc1ccc2cc3cc(C(=O)N4CC(C)CC(C)C4)oc3nc2c1 (configuration not stated),"18.4 µM [rising, partial curve, poor fit]",–
Cc1c(C)c2ccc(OCC(=O)N3CCC(C(=O)O)CC3)c(C)c2oc1=O,"2.51 µM [falling, full curve]",–
O=C(CN1C(=O)S/C(=C\c2ccccc2Cl)C1=O)NC1C=CS(=O)(=O)C1 (configuration not stated),"3.55 µM [falling, partial curve, poor fit]",–
Cc1ccc2c(c1)C(N1CCCC1=O)CC(c1ccco1)N2 (configuration not stated),"4.47 µM [rising, full curve, poor fit]",–
O=C(NCc1ccncc1)C(=O)N/N=C/c1cccnc1,"22.4 µM [falling, single point]",–
COc1ccccc1N1CCN(CCCNC(=O)Nc2ccccc2C)CC1,"11.2 µM [rising, single point]",–

SMILES,AC50 [1],AC50 [2]
COc1ccc(C)cc1NC(=O)C1COc2ccccc2O1 (configuration not stated),"5.62 µM [rising, single point]",–
CC1CCCCC1NC(=O)C1CCN(S(=O)(=O)c2ccc(-n3cnnn3)cc2)CC1 (configuration not stated),"6.51 µM [rising, single point]",–
Nc1c(Cl)cc(Cl)cc1C(=O)OCC(=O)NC1CC1,"1.84 µM [falling, full curve, poor fit]",–
C=C(C)C1CC=C(C)/C(=N/NC(=O)c2cccs2)C1 (configuration not stated),"4.11 µM [rising, full curve, poor fit]",–
CCN(CC)C(=O)Cn1nc(-c2ccc(Cl)cc2)c2ccccc2c1=O,"0.224 µM [falling, full curve]",–
Cc1oc(-c2ccc(Cl)cc2)cc1C(=O)O,"3.98 µM [falling, partial curve]",–
COC(=O)CCc1c(C)nc(N)[nH]c1=O,"5.8 µM [rising, full curve]",–
Clc1ccc(-c2csc(-c3ccno3)n2)cc1,"22.4 µM [rising, partial curve, poor fit]",–
CCOc1ccccc1OCC(=O)OC(C)C(=O)Nc1ncc(Cl)cc1Cl (configuration not stated),"20.6 µM [rising, single point]",–
CCn1c(NN)nc2sc3c(c2c1=O)CCC3,"0.231 µM [falling, partial curve, poor fit]",–
O=C(CN(Cc1ccccc1)C(=O)c1cc2c(s1)CCC2)NCc1cccs1,"3.55 µM [falling, partial curve]",–
Cc1cc(=O)oc2cc(OC(C)C(=O)NCC3CCCO3)ccc12 (configuration not stated),"6.31 µM [rising, single point]",–
Cc1cc(/C=C(\C#N)C(=O)NCc2ccco2)c(C)n1-c1cccnc1,"22.4 µM [falling, single point]",–
CC/C(=N/NC(=O)c1ccc(Br)cc1)c1ccc(OCCN2CCOCC2)cc1,"5.8 µM [falling, partial curve, poor fit]",–
O=C(c1cccc(-n2cccc2)c1)N1CCN(S(=O)(=O)c2ccccc2Br)CC1,"2.06 µM [rising, partial curve]",–
O=C(Nc1ccc(N2CCCC2)cc1)c1cccc(Cl)c1,"10 µM [falling, partial curve, poor fit]",–
CC(=O)C(C(C)=O)C1(O)C(=O)c2ccccc2C1=O,"29.1 µM [rising, single point]","29.1 µM [falling, single point]"
CC1=C(/C=C/C(C)=C/C=C/C(C)=C/C(=O)O)C(C)(C)CCC1,"35.5 µM [falling, single point]","3.26 µM [falling, partial curve, poor fit]"
CCOC(=O)C1=C(N)Oc2ccc3ccccc3c2C1c1cccnc1 (configuration not stated),"29.1 µM [falling, single point]",–
O=C(NCc1ccccn1)C1CCN(S(=O)(=O)N2CCCC2)CC1,"29.1 µM [falling, single point]",–
O=C(c1ccco1)N1CCN(Cc2cn[nH]c2-c2ccc(F)cc2F)CC1,"3.16 µM [falling, single point]",–

SMILES,AC50 [1],AC50 [2]
O=C(NC1CCCCCC1)C1CCN(S(=O)(=O)c2ccccc2)CC1,"6.51 µM [rising, single point]",–
Cc1c(/C(O)=C2\C(=O)C(=O)N(CCCN(C)C)C2c2ccncc2)cnn1-c1ccccc1 (configuration not stated),"3.16 µM [rising, partial curve, poor fit]",–
N#Cc1c([N+](=O)[O-])cc([N+](=O)[O-])cc1S(=O)(=O)Cc1ccccc1,"0.366 µM [falling, full curve, poor fit]","2.59 µM [rising, full curve, poor fit]"
Cc1ccc(NC(=O)Cn2c(=O)n(Cc3ccco3)c(=N)c3c4c(sc32)COC(C)(C)C4)cc1,"23.1 µM [falling, single point]",–
Cc1ccccc1OCC(=O)NCC(=O)N/N=C/C=C/c1ccccc1,"14.6 µM [rising, partial curve, poor fit]",–
Cc1cccc(N2CCN(S(=O)(=O)c3ccc4c(c3)C(C)(C)C(=O)N4C)CC2)c1C,–,"12.6 µM [rising, partial curve, poor fit]"
COC(=O)c1ccc(/C=C(\C#N)c2nc3ccccc3s2)cc1,"1.26 µM [falling, partial curve, poor fit]",–
CN(C)CCCNc1cc(-c2ccccc2)nc2cc(-c3cccc(F)c3)nn12,"12.6 µM [falling, partial curve]",–
CCCCC(=O)NC(c1ccc(Cl)cc1Cl)c1ccc2cccnc2c1O (configuration not stated),"35.5 µM [falling, single point]",–
Cc1ccc(S(=O)(=O)NCC2CCC(C(=O)NCc3cccs3)CC2)cc1 (configuration not stated),"1.12 µM [rising, full curve, poor fit]",–
CCOC(=O)c1[nH]c(C)c(C(=O)N2CCc3c([nH]c4ccccc34)C2c2ccccn2)c1C (configuration not stated),"11.2 µM [falling, partial curve, poor fit]",–
Cc1nc2oc3c(NCC4CCCO4)ncnc3c2c2c1COC(C)(C)C2 (configuration not stated),"0.891 µM [falling, partial curve, poor fit]",–
COc1cc(/C=C(\C#N)c2nc3ccccc3[nH]2)ccc1O,"8.91 µM [falling, partial curve]",–
Cc1cc2c(cc1S(=O)(=O)NCc1ccccc1)OCC(=O)N2,"10 µM [falling, partial curve]",–
Cc1csc(NC(=O)CCCc2cccs2)n1,"11.2 µM [falling, single point]",–
Cc1onc(-c2ccccc2)c1C(=O)N/N=C/c1ccc(O)c([N+](=O)[O-])c1,"22.4 µM [falling, single point]",–
CCOC(=O)c1cccc(NC(=S)NC(=O)c2cccnc2)c1,"11.2 µM [falling, partial curve]",–
CCSc1nnc(NC(=O)c2nc(S(=O)(=O)Cc3ccc(F)cc3)ncc2Cl)s1,"35.5 µM [falling, single point]","31.6 µM [rising, single point]"
O=C(c1ccc(Cl)cc1)c1c[nH]c(C(=O)C(Cl)(Cl)Cl)c1,"6.51 µM [falling, partial curve, poor fit]",–

# Entries above that have bromine (2):
SMILES,AC50 [1],AC50 [2]
CC/C(=N/NC(=O)c1ccc(Br)cc1)c1ccc(OCCN2CCOCC2)cc1,"5.8 µM [falling, partial curve, poor fit]",–
O=C(c1cccc(-n2cccc2)c1)N1CCN(S(=O)(=O)c2ccccc2Br)CC1,"2.06 µM [rising, partial curve]",–
